# Laboratory results from PMC3078890, “Sponge non-metastatic Group I Nme gene/protein - structure and function is conserved from sponges to humans” (BMC Evolutionary Biology, 2011).
# The chains behind the UniProt entries cited, without tags or fusion partners.
# UniProt P15531: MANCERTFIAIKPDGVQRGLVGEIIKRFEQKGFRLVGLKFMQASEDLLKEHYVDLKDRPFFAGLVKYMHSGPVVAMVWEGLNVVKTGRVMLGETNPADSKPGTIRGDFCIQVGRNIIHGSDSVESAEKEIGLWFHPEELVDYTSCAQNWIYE
# Results are given in words; binding and its absence hold for the method and conditions named. In cells and extracts the contact can be indirect. Some results given as binding are weak or reduced against the parent protein; the word gives no strength.
# Molecular target: FLAG/Nme1 overexpressed in CAL 27 cells (clones K1 and K2) (human) (UniProt P15531)
# Experiment: co-IP; lysates of stably transfected CAL 27 clones; FLAG-tagged protein precipitated with anti-FLAG M2 affinity gel, blotted with anti-Nme1 or anti-Nme1 and anti-FLAG antibody
substance,measurement,value
endogenous human Nme1 of CAL 27 cells (from UniProt P15531 1-152),binding,binds
